Values from PubChem BioAssay AID1259254 (NCATS, 2017).
Here is an unselected part of about 59,000 reagents tested. Of all reagents, about 1,550 (2.6%) were called active. 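G2 share is only a proxy for re-replication; each gene was hit by three separate siRNAs, and active genes were retested.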 A number with no mark means an inactive call. Reagents against one gene are numbered here. Not all columns of the deposit are shown. Not stated in the record: the amount of reagent.

Aim: 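Finding genes that stop cells copying their DNA twice in one cycle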 (primary screen)
Cells: human HCT116 colorectal cancer cells
Reagent: single siRNA against human genes
Time to read-out: 3 days
Detection: 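Nuclei stained with Hoechst and imaged; cell-cycle phase assigned by DNA content; G2 share scaled per plate, non-targeting siRNA 0%, GMNN siRNA 100%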
Reading the numbers: G2 robust z-score: higher = more G2 cells, more excess DNA replication
Rule for the call: 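Active siRNAs have a G2 robust z of 5 or more median absolute deviations over the median, which in these data means about 38% or higher of GMNN control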

G2 robust z-score, by gene knocked down and reagent
TASP1 (taspase 1): #1 -0.323; #2 -0.529; #3 0.656
IGFBP4 (insulin like growth factor binding protein 4): #1 -0.188; #2 -0.37; #3 0.421
TENT5C (terminal nucleotidyltransferase 5C): #1 0.948; #2 -0.0495; #3 2.26
FAM218A (family with sequence similarity 218 member A): #1 0.393; #2 -1.07; #3 -0.542
MYPN (myopalladin): #1 -1.01; #2 3.15; #3 -0.534
CBX6 (chromobox 6): #1 1.64; #2 -0.243; #3 -0.289
ANKRD33 (ankyrin repeat domain 33): #1 -0.633; #2 2.7; #3 -0.112
GYPA (glycophorin A (MNS blood group)): #1 -0.135; #2 1.34; #3 -0.695
KCTD9 (potassium channel tetramerization domain containing 9): #1 0.237; #2 1.77; #3 0.856
GPRASP3: #1 5.27 (active); #2 2.49; #3 3.75
TBATA (thymus, brain and testes associated): #1 -0.181; #2 0.843; #3 4.69
RPL37AP8 (ribosomal protein L37a pseudogene 8): #1 -0.646; #2 -0.544; #3 0.55
MDGA2 (MAM domain containing glycosylphosphatidylinositol anchor 2): #1 -0.74; #2 -0.0503; #3 0.472
STAM2 (signal transducing adaptor molecule 2): #1 -0.216; #2 -0.073; #3 0.838
CRTAP (cartilage associated protein): #1 -0.662; #2 -0.854; #3 0.179
TLL2 (tolloid like 2): #1 2.47; #2 0.155; #3 -0.276
PRKCH (protein kinase C eta): #1 0.759; #2 1.02; #3 -0.314
GAA (alpha glucosidase): #1 -0.028; #2 1.94; #3 1.75
LYPD6 (LY6/PLAUR domain containing 6): #1 -0.675; #2 0.669; #3 -0.484
FIMP1 (fertilization-influencing membrane protein 1): #1 0.474; #2 -1.06; #3 -0.304
ANKFN1 (ankyrin repeat and fibronectin type III domain containing 1): #1 -0.427; #2 -0.999; #3 0.549
CCNE1 (cyclin E1): #1 -0.0494; #2 -0.86; #3 1.86
GATAD2B (GATA zinc finger domain containing 2B): #1 -0.509; #2 -0.277; #3 0.68
